From PubChem BioAssay AID2685 (National Center for Advancing Translational Sciences (NCATS), 2010)
This is one part of the list. Further columns of the screen follow, without active or inactive calls. The list favours compounds with an active or inconclusive main result. Words in brackets tell the shape of the fitted curve; partial curves, single points and poor fits give uncertain potencies.

Assay: qHTS Assay for Lipid Storage Modulators in Drosophila S3 Cells;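 on cell number change: cells counted by Cell Tracker Red CMTPX staining in the red channel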
Conditions: BODIPY lipid droplet fluorescence, 18-24 h; for cell number change: measured here: cell count max response, cells fed with added oleic acid
How it was run: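 Drosophila S3 cells loaded with oleic acid (400 uM, as added) and compounds at several concentrations; lipid droplets imaged by 488-nm laser-scanning cytometry, 500–530 nm intensity and object ratio to cell channel. Percent activity normalized to 20 uM Triacsin C.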

[1] = measured here: lipid fluorescence (Fed channel) AC50, cells fed with added oleic acid
[2] = measured here: cell number channel AC50, cells fed with added oleic acid

In the case of `CC(C)NC(=O)NC(=O)CSc1nncn1C`, the AC50 [1] is reported as 0.82 µM [falling, full curve, poor fit].

For `O=C(CSc1nnc(NC(=O)c2c(F)cccc2F)s1)Nc1ccc(F)cc1`, the AC50 [1] was 20.6 µM [rising, partial curve, poor fit].

In the case of `CC(Sc1ncn[nH]1)C(=O)c1c(N)n(C)c(=O)n(C)c1=O` (stereo not given), the cell number change is reported as -10.4% and the AC50 [1] is reported as 29.1 µM [rising, single point].

In the case of `COC(=O)c1ccccc1NC(=O)c1ccc(-c2cccc(Cl)c2)o1`, the AC50 [1] is reported as 6.51 µM [falling, single point].

Compound `C=CCNC(=O)CSc1nnc(-c2ccc(S(=O)(=O)N3CCCC3)cc2)n1C` has a cell number change of -10.5%.

With `COc1ccc(C)cc1NC(=O)NC1CCCc2ccccc21` (stereo not given) the cell number change was 16.4% and the AC50 [1] was 10 µM [rising, partial curve, poor fit].

For `CC(C)(C)NC(=O)C(c1c[nH]c2ccccc12)N(C(=O)Cn1nnc(-c2ccc(Cl)cc2)n1)c1ccccc1F` (stereo not given), the cell number change was 21.8% and the AC50 [1] was 5.8 µM [rising, single point].

In the case of `COc1ccc(N(C(C)C(=O)NCCSCc2cccc(Cl)c2)S(C)(=O)=O)cc1` (stereo not given), the cell number change is reported as 19.3% and the AC50 [1] is reported as 0.146 µM [falling, single point].

Work on `O=C(NC1CCCc2ccccc21)c1cccnc1` (stereo not given) yielded a cell number change of -9.19%.

For `COc1ccc(NC(=S)N2CCC(C(=O)c3ccc(C)cc3)CC2)c(OC)c1`, the cell number change was 10.7% and the AC50 [1] was 0.82 µM [falling, full curve].

In the case of `CCN(CC)c1ccc(NC(=O)c2cccc(OC)c2)c(C)c1`, the cell number change is reported as 3.84% and the AC50 [1] is reported as 6.51 µM [rising, single point].

For `O=C(Nc1ccc(F)c(F)c1)C1CCCN(S(=O)(=O)c2cccc3nonc23)C1` (stereo not given), the cell number change was 92.8% and the AC50 [2] was 20.6 µM [rising, single point].

With `Cc1nc2ccccn2c1-c1ccnc(SCc2ccc(Cl)cc2)n1` the cell number change was -19.2% and the AC50 [1] was 29.1 µM [falling, single point].

With `Cc1cc(=O)n2c3ccccc3n(CC(O)CN3CCCCC3)c2c1C#N` (stereo not given) the cell number change was -2.11%.

For `CC(=O)Nc1c(O)nc(SCc2ccccc2C#N)[nH]c1=O`, the cell number change was -25.9% and the AC50 [1] was 4.11 µM [falling, full curve, poor fit].

For `CCOC(=O)c1cccc(-c2c(-c3ccccc3)ncc3cc(OC)c(OC)cc23)c1`, the cell number change was -32.3%, the AC50 [2] was 8.2 µM [falling, single point] and the AC50 [1] was 18.4 µM [falling, single point].

In the case of `CCC1=NN(C(=O)CCc2ccc3c(c2)OCO3)C(O)(C(F)(F)F)C1` (stereo not given), the cell number change is reported as 26.3% and the AC50 [1] is reported as 0.092 µM [rising, full curve, poor fit].

Compound `Cc1cc(NC(=O)CSc2nnc3ccccn23)no1` has a cell number change of -71.4%.

In the case of `Cc1ccnc(SCC(=O)Nc2c(C)n(C)n(-c3ccccc3)c2=O)n1`, the AC50 [1] is reported as 29.1 µM [falling, single point].

`CC(=O)c1c(O)c(C)c(O)c2c1OC1=CC(=O)C(C(C)=O)C(=O)[C@@]12C` (stereo not given in full) gave a cell number change of 20.8%.

With `COc1ccc(-c2cc(C(F)(F)F)n3nc(C)cc3n2)cc1` the cell number change was 30%, the AC50 [2] was 0.184 µM [rising, full curve, poor fit] and the AC50 [1] was 14.6 µM [rising, partial curve].

For `O=c1c2c3c(sc2nc2n1CCC2)CCCC3`, the cell number change was 21.3% and the AC50 [1] was 0.0058 µM [rising, full curve, poor fit].

For `CCCn1c(=O)c2sccc2n2c(CCCC(=O)NCc3cccnc3)nnc12`, the cell number change was -3.61% and the AC50 [2] was 1.46 µM [rising, full curve, poor fit].

For `COc1ccc2oc(=O)c(C(=O)N3c4ccccc4CC3C)cc2c1` (stereo not given), the cell number change was 55.5% and the AC50 [2] was 29.1 µM [rising, single point].

In the case of `Cc1cc(C)c2c(=O)n(CC(=O)NC3CCCC3)sc2n1`, the cell number change is reported as -36.1%.

With `COc1ccc(NC(=O)C(C/C=C(/C)Cl)C(C)=O)cc1` (stereo not given) the cell number change was 18.6% and the AC50 [1] was 25.9 µM [rising, single point].

In the case of `Cc1ccc(NC(=O)N2CCCC2C(=O)NCc2ccc(Cl)cc2)cc1` (stereo not given), the cell number change is reported as 6.3% and the AC50 [1] is reported as 1.03 µM [falling, full curve].

`O=C(O)CSCC(=O)Nc1ccc(C(F)(F)F)cc1` gave a cell number change of 164%.

`O=c1cc(N2CCCCC2)c(-c2ccccc2)nn1Cc1ccccc1` gave a cell number change of -48.2%.

In the case of `O=C(Nc1ccc2c(c1)OCO2)Nc1ccc(Cl)cc1Cl`, the AC50 [2] is reported as 0.366 µM [rising, full curve] and the AC50 [1] is reported as 2.31 µM [rising, partial curve].

In the case of `COc1ccc(CC(=O)N2CCCc3ccccc32)cc1`, the cell number change is reported as 1.51% and the AC50 [1] is reported as 0.291 µM [falling, full curve, poor fit].

With `C=CCn1c(Cc2cccs2)nnc1SCC(=O)c1ccc2ccccc2c1` the cell number change was 67.9%, the AC50 [2] was 9.2 µM [rising, partial curve] and the AC50 [1] was 3.26 µM [rising, partial curve].

With `Cc1ccc(C#CC[N+]2(CC#Cc3ccc(C)cc3)CCCCC2)cc1` the cell number change was -32.3% and the AC50 [2] was 3.26 µM [falling, full curve, poor fit].

With `Cc1cc(NC(=O)CSc2n[nH]c(=O)[nH]c2=O)ccc1Br` the cell number change was 11.4% and the AC50 [2] was 3.26 µM [falling, single point].

In the case of `COc1ccc(CN2CCCC2C(=O)Nc2ccc(OC)c(OC)c2)cc1OC` (stereo not given), the cell number change is reported as -0.559% and the AC50 [1] is reported as 0.206 µM [falling, full curve].

For `CCOC(=O)c1sc(=NC(=O)/C=C/c2cccs2)n(C)c1C`, the cell number change was 53.2%, the AC50 [2] was 0.82 µM [rising, partial curve] and the AC50 [1] was 0.651 µM [rising, partial curve, poor fit].

With `N/C(Cc1ccc([N+](=O)[O-])cc1)=N\OC(=O)COc1ccccc1Cl` the AC50 [1] was 2.06 µM [rising, partial curve].

With `O=C(NCc1ccc2c(c1)OCO2)C1CCCN(C(=O)c2ccc(Cl)cc2)C1` (stereo not given) the cell number change was 19.6% and the AC50 [1] was 6.51 µM [rising, single point].

For `CCCc1nnc(NC(=O)c2nc(S(=O)(=O)Cc3ccc(C)cc3)ncc2Cl)s1`, the cell number change was -6.52% and the AC50 [2] was 0.731 µM [falling, partial curve, poor fit].

In the case of `Cc1ccc(-n2ccc(=O)c(C(=O)Nc3ccc(S(=O)(=O)Nc4nccc(C)n4)cc3)n2)cc1`, the AC50 [1] is reported as 6.51 µM [rising, single point].

For `CNc1c([N+](=O)[O-])cnn1-c1ccc(Cl)cc1Cl`, the cell number change was -0.149% and the AC50 [1] was 0.0651 µM [falling, full curve, poor fit].

In the case of `O=C(CSc1nc2ccccc2o1)Nc1nccs1`, the cell number change is reported as -13.9% and the AC50 [1] is reported as 0.731 µM [falling, partial curve, poor fit].

For `COc1ccccc1C(=O)NCCC(=O)NCCCSc1ccccc1`, the cell number change was 39.8% and the AC50 [2] was 16.4 µM [rising, single point].

For `C=CCOc1ccc(/C=C/C(=O)OCC(=O)NC2CCCCCC2)cc1`, the cell number change was 4.97% and the AC50 [1] was 29.1 µM [rising, single point].

In the case of `CCOC(=O)c1ccccc1N/C=C/C(=O)c1cccs1`, the cell number change is reported as -5.76% and the AC50 [1] is reported as 9.2 µM [falling, partial curve, poor fit].

With `CN(CC(=O)Nc1ccccc1C(=O)NC1CC1)Cc1ccc(Cl)s1` the cell number change was -16.1% and the AC50 [1] was 14.6 µM [falling, single point].

`Cc1c(Cl)c([N+](=O)[O-])nn1CCCC(=O)N(Cc1ccccc1)Cc1ccccc1` gave a cell number change of 10%.

In the case of `CSCCC(NS(=O)(=O)c1ccccc1)C(=O)Nc1nccs1` (stereo not given), the cell number change is reported as -1.81% and the AC50 [1] is reported as 0.517 µM [rising, full curve].

For `COC(=O)c1cc(OC(=O)c2ccc(=O)[nH]c2)cc(C(=O)OC)c1`, the cell number change was 15.4%.

With `CCCCn1c(=N)c(S(=O)(=O)c2ccc(Br)cc2)cc2c(=O)n3cccc(C)c3nc21` the cell number change was 16.4%, the AC50 [2] was 6.51 µM [rising, single point] and the AC50 [1] was 2.91 µM [rising, single point].

With `CCC(=O)NCCCNc1nc2c(C)cccc2cc1C#N` the cell number change was 53.6% and the AC50 [2] was 16.4 µM [rising, partial curve].

For `Cc1cccc(C)c1OCc1cc(C(=O)N2CCN(Cc3nccn3C)CC2)no1`, the cell number change was 18.7% and the AC50 [1] was 10.3 µM [rising, partial curve].

With `Cc1ccc(C(=O)NCC(c2ccco2)N2CCc3ccccc32)cc1C` (stereo not given) the AC50 [2] was 6.51 µM [rising, single point] and the AC50 [1] was 6.51 µM [rising, single point].

For `COc1cccc(/C=C(/C(=O)OCC(=O)NCC2CCCO2)c2ccccc2)c1` (stereo not given), the cell number change was 17.4%.

In the case of `C=CCSc1nnc(NC(=O)Cn2cnc3c2c(=O)n(C)c(=O)n3C)s1`, the AC50 [1] is reported as 0.651 µM [falling, partial curve, poor fit].

With `N#Cc1ccc(NC(=O)Cn2cnc([N+](=O)[O-])c2)cc1` the cell number change was -10.1% and the AC50 [1] was 6.51 µM [rising, single point].

For `O=C(Oc1ccc(-c2nnco2)cc1)c1ccco1`, the cell number change was -21.8% and the AC50 [1] was 25.9 µM [rising, single point].

With `CCCc1cc(N2CCCC(C(=O)NCc3ccc4c(c3)OCO4)C2)n2ncnc2n1` (stereo not given) the cell number change was 11.5% and the AC50 [1] was 0.092 µM [rising, full curve, poor fit].

With `Cc1cccc(C(=O)NNS(=O)(=O)c2ccc(F)cc2)c1O` the cell number change was 12.9% and the AC50 [1] was 8.2 µM [rising, partial curve].

In the case of `CCC(C)(C)NC(=O)C1CC(=O)N(CCc2ccc(F)cc2)C1` (stereo not given), the AC50 [1] is reported as 29.1 µM [falling, single point].

With `CN1CCN(S(=O)(=O)c2ccc(NC(=O)c3cccs3)cc2)CC1` the AC50 [2] was 0.164 µM [falling, partial curve, poor fit] and the AC50 [1] was 0.13 µM [falling, full curve, poor fit].

For `CCN1C(=O)[C@H]2[C@@H](c3ccc(-c4ccc(OC)cc4)cc3)N3CCC[C@@]3(C(=O)OC)[C@H]2C1=O`, the cell number change was -10.5% and the AC50 [1] was 0.0731 µM [rising, full curve, poor fit].
